Data as given in doi:10.1101/2020.07.04.184861.
Results are given in words; binding and its absence hold for the method and conditions named. Binding seen in cells or lysates may run through a third protein. Some binding calls cover weakened binding; strength is not graded here. Sequences can lack the tags named with a protein.

Amino acid sequences for entries named in this document (tags omitted).
UniProt Q13838: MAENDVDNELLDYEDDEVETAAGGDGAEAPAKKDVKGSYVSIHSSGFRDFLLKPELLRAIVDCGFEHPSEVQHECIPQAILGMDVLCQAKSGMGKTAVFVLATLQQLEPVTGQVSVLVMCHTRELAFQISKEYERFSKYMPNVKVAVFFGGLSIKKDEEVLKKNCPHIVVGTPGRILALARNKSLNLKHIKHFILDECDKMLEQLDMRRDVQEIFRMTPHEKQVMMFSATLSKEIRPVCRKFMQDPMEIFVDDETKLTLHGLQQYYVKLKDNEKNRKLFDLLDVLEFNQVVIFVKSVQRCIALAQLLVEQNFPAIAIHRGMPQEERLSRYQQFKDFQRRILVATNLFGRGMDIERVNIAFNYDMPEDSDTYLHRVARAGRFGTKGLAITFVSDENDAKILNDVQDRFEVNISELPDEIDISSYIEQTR
UniProt P38919: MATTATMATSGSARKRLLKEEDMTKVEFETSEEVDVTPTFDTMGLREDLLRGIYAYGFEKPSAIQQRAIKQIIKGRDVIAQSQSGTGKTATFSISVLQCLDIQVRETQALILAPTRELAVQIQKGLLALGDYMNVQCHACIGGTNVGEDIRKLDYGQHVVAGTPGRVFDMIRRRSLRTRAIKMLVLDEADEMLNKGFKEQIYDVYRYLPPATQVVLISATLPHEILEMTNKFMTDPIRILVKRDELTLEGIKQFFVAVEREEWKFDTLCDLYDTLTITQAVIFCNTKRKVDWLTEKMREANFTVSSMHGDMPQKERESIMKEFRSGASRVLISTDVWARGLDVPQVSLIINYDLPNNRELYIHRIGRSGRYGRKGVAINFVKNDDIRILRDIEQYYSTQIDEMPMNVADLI
UniProt P61326: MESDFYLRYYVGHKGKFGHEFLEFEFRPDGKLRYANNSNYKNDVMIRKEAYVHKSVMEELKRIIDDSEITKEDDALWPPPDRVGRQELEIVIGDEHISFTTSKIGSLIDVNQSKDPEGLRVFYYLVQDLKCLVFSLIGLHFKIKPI

Assays:
[1] = target: T1, LAP-tagged NCBP2 (Nuclear Cap Binding Protein 2) (UniProt P52298); assay: co-IP
T1 sequence: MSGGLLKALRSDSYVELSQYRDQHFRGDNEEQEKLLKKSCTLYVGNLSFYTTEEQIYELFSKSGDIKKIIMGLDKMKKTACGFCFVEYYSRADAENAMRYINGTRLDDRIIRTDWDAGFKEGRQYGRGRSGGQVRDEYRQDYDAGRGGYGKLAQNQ

[2] = target: T2, LAP-tagged NCBP3 (C17orf85) (UniProt Q53F19); assay: co-IP
T2 sequence: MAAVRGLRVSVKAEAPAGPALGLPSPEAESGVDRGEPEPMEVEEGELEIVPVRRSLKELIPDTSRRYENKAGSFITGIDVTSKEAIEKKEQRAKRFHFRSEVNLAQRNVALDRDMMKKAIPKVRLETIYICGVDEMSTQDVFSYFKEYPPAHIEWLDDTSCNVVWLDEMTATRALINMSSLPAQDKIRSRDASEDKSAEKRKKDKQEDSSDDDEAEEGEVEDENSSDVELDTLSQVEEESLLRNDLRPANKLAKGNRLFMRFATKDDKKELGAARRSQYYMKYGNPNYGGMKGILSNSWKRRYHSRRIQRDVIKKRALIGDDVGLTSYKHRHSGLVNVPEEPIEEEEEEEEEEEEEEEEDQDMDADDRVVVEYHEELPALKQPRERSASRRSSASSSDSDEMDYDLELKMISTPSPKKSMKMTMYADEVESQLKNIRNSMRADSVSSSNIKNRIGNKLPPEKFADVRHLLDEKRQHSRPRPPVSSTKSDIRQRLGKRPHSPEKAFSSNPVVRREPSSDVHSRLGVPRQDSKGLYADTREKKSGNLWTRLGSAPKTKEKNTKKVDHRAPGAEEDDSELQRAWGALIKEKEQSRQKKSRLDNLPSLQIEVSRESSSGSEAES

binding [1]	binding [2]	Substance
binds	binds	DDX39B, endogenous (from UniProt Q13838 1-428)
binds		EIF4A3, endogenous (from UniProt P38919 1-411)
binds		MAGOH, endogenous (from UniProt P61326 1-146)
